Record: PubChem BioAssay AID652243 (Drosophila RNAi Screening Center, 2013)

Test: 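Fly genes required for human androgen receptor driven transcription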 (primary screen)
Cells: Drosophila S2R+ cells
Reagents: long dsRNA against Drosophila genes
Duration: 72 h (48 h, then 24 h hormone)
Conditions: synthetic androgen R1881 at 10 nM for 24 h
Measured: 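Firefly light from an androgen-responsive reporter and Renilla control light per well, raw and unnormalised, for each of two replicates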
Scale: firefly reporter light: higher = more light from androgen-responsive reporter; Renilla control light: higher = more constitutive control signal (cell number, transfection)
Active means: 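Across duplicate plates, a knock-down whose log firefly/Renilla ratio shifted a set fold down or up from the GFP/LacZ control mean was a hit; the downward cut appears as both 1.5 and 3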
Meaning of the calls: active = hit: reporter lowered or raised; inactive = no hit
The deposit covers about 24,000 reagents; shown is a random part of those with a known target gene and a result. In the full data, 246 (1%) got an active call. 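Plates not normalised; calls are printed but the firefly/Renilla ratio behind them is not deposited; fold cut for lowering reported inconsistently.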 Raw values vary from plate to plate and are shown uncorrected. The numbers tell different reagents against one gene apart. The record does not give: the amount of reagent.

Against Cpr65Ay (Cuticular protein 65Ay) the deposit lists firefly reporter light, replicate 1 = 6.71e5; firefly reporter light, replicate 2 = 7.47e5; Renilla control light, replicate 1 = 1.57e6; Renilla control light, replicate 2 = 1.67e6; inactive.
RpS15 (Ribosomal protein S15) #1 gave firefly reporter light, replicate 1 = 1.34e5; firefly reporter light, replicate 2 = 1.90e5; Renilla control light, replicate 1 = 1.09e6; Renilla control light, replicate 2 = 1.09e6; inactive.
For RpS15 (Ribosomal protein S15) #2 the deposit lists firefly reporter light, replicate 1 = 2.28e5; firefly reporter light, replicate 2 = 98744; Renilla control light, replicate 1 = 5.62e5; Renilla control light, replicate 2 = 2.78e5; inactive.
NPFR (Neuropeptide F receptor) scored firefly reporter light, replicate 1 = 1.29e5; firefly reporter light, replicate 2 = 1.46e5; Renilla control light, replicate 1 = 3.12e6; Renilla control light, replicate 2 = 2.72e6; inactive.
Depletion of CG5504 resulted in: firefly reporter light, replicate 1 = 3.39e5; firefly reporter light, replicate 2 = 6.60e5; Renilla control light, replicate 1 = 7.81e5; Renilla control light, replicate 2 = 1.52e6; inactive.
CG1827 showed firefly reporter light, replicate 1 = 6.05e5; firefly reporter light, replicate 2 = 6.23e5; Renilla control light, replicate 1 = 1.58e6; Renilla control light, replicate 2 = 1.38e6; inactive.
Strn-Mlck (Stretchin-Mlck) #1 showed firefly reporter light, replicate 1 = 1.70e6; firefly reporter light, replicate 2 = 1.28e6; Renilla control light, replicate 1 = 3.33e6; Renilla control light, replicate 2 = 2.21e6; inactive.
Strn-Mlck (Stretchin-Mlck) #2 scored inactive.
With knock-down of Strn-Mlck (Stretchin-Mlck) #3 the results were firefly reporter light, replicate 1 = 98937; firefly reporter light, replicate 2 = 1.35e5; Renilla control light, replicate 1 = 2.03e6; Renilla control light, replicate 2 = 2.03e6; inactive.
For Strn-Mlck (Stretchin-Mlck) #4 the deposit lists firefly reporter light, replicate 1 = 33568; firefly reporter light, replicate 2 = 51215; Renilla control light, replicate 1 = 6.42e5; Renilla control light, replicate 2 = 6.42e5; inactive.
For Strn-Mlck (Stretchin-Mlck) #5, the values are inactive.
After knock-down of HBS1 #1, the screen gave firefly reporter light, replicate 1 = 1.64e6; firefly reporter light, replicate 2 = 1.07e6; Renilla control light, replicate 1 = 2.78e6; Renilla control light, replicate 2 = 2.16e6; inactive.
Silencing of HBS1 #2 came out at: firefly reporter light, replicate 1 = 4.10e5; firefly reporter light, replicate 2 = 6.37e5; Renilla control light, replicate 1 = 5.16e5; Renilla control light, replicate 2 = 6.26e5; inactive.
Silencing of shg (shotgun) #1 gave: firefly reporter light, replicate 1 = 7.91e5; firefly reporter light, replicate 2 = 6.34e5; Renilla control light, replicate 1 = 2.27e6; Renilla control light, replicate 2 = 1.93e6; inactive.
shg (shotgun) #2 scored firefly reporter light, replicate 1 = 4.53e5; firefly reporter light, replicate 2 = 2.37e5; Renilla control light, replicate 1 = 7.70e5; Renilla control light, replicate 2 = 7.28e5; inactive.
After knock-down of shg (shotgun) #3, the screen gave firefly reporter light, replicate 1 = 7.42e5; firefly reporter light, replicate 2 = 8.80e5; Renilla control light, replicate 1 = 1.36e6; Renilla control light, replicate 2 = 1.29e6; inactive.

Not a retest: entries from further up.
Strn-Mlck (Stretchin-Mlck) #4 | firefly reporter light, replicate 1 = 33568; firefly reporter light, replicate 2 = 51215; Renilla control light, replicate 1 = 6.42e5; Renilla control light, replicate 2 = 6.42e5; activity call = inactive
Strn-Mlck (Stretchin-Mlck) #5 | activity call = inactive
